Experimental data from publication doi:10.1101/2023.06.23.545108.
No constants are given. Whether binding was seen depends on the method and setting. In cells and extracts the contact can be indirect. Some binding calls cover weakened binding; strength is not graded here. For some of these results: Tags and fused reporters may be left off the sequences shown.

Amino acid sequences for entries named in this document (tags omitted).
UniProt Q15717, whole entry: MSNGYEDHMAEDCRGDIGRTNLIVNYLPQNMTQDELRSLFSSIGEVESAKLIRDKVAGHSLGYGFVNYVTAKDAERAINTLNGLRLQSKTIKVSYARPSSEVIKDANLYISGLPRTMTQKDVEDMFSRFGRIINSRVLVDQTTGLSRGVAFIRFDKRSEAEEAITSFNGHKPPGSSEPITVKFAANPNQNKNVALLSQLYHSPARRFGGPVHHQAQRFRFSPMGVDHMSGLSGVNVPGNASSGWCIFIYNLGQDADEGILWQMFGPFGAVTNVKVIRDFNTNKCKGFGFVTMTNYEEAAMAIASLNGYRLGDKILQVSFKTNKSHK

Tests used:
Test in all cases: co-IP
[1] = molecular target: T1, hnRNPM-GFP (heterogeneous nuclear ribonucleoprotein M, C-terminally GFP-tagged), P52272; details: remark: other sources report otherwise
T1 chain: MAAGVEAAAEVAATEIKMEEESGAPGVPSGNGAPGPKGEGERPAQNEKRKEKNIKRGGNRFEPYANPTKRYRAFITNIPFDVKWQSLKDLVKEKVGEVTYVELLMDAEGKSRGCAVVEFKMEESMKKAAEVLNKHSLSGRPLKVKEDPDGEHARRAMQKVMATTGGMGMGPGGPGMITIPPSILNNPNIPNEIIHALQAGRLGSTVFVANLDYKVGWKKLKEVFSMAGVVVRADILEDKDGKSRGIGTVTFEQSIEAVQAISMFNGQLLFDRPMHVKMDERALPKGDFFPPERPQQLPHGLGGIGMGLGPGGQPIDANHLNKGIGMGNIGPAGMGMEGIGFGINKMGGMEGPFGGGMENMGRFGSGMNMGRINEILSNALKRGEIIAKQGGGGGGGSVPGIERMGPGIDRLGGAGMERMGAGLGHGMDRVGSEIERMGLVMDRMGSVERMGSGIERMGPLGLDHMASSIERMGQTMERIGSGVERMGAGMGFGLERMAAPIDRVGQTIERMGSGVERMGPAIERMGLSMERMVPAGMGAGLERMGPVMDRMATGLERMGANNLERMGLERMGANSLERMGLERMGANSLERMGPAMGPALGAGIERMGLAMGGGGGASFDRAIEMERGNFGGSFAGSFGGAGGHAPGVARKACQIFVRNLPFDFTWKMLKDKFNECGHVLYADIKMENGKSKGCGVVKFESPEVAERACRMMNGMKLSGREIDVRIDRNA

[2] = molecular target: T2, hnRNPM-GFP (heterogeneous nuclear ribonucleoprotein M, C-terminally GFP-tagged) (UniProt P52272)
T2 sequence: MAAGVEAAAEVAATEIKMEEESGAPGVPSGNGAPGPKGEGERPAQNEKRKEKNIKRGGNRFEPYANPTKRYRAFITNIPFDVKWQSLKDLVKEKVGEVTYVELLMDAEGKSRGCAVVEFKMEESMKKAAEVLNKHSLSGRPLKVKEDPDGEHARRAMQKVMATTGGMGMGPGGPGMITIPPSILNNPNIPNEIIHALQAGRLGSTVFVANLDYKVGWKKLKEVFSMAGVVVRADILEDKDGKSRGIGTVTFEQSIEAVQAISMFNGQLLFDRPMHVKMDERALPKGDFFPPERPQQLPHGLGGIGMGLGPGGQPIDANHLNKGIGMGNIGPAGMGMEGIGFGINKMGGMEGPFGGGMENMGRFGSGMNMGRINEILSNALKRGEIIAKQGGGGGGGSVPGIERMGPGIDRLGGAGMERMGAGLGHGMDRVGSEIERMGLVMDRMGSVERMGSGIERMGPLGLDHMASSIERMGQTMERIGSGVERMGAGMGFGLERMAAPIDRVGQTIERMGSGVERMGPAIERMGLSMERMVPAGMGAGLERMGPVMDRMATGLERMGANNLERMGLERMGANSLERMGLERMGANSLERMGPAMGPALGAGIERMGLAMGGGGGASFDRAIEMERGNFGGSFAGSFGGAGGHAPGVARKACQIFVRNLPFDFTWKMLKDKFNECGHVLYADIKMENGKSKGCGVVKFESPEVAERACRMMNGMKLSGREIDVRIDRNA

ELAVL1-FLAG = ELAVL1-FLAG (UniProt Q15717)

B1: TANK-binding kinase 1 (TBK1), endogenous in THP-1, Q9UHD2 1-729 (protein)
chain: MQSTSNHLWLLSDILGQGATANVFRGRHKKTGDLFAIKVFNNISFLRPVDVQMREFEVLKKLNHKNIVKLFAIEEETTTRHKVLIMEFCPCGSLYTVLEEPSNAYGLPESEFLIVLRDVVGGMNHLRENGIVHRDIKPGNIMRVIGEDGQSVYKLTDFGAARELEDDEQFVSLYGTEEYLHPDMYERAVLRKDHQKKYGATVDLWSIGVTFYHAATGSLPFRPFEGPRRNKEVMYKIITGKPSGAISGVQKAENGPIDWSGDMPVSCSLSRGLQVLLTPVLANILEADQEKCWGFDQFFAETSDILHRMVIHVFSLQQMTAHKIYIHSYNTATIFHELVYKQTKIISSNQELIYEGRRLVLEPGRLAQHFPKTTEENPIFVVSREPLNTIGLIYEKISLPKVHPRYDLDGDASMAKAITGVVCYACRIASTLLLYQELMRKGIRWLIELIKDDYNETVHKKTEVVITLDFCIRNIEKTVKVYEKLMKINLEAAELGEISDIHTKLLRLSSSQGTIETSLQDIDSRLSPGGSLADAWAHQEGTHPKDRNVEKLQVLLNCMTEIYYQFKKDKAERRLAYNEEQIHKFDKQKLYYHATKAMTHFTDECVKKYEAFLNKSEEWIRKMLHLRKQLLSLTNQCFDIEEEVSKYQEYTNELQETLPQKMFTASSGIKHTMTPIYPSSNTLVEMTLGMKKLKEEMEGVVKELAENNHILERFGSLTMDGGLRNVDCL
With B1 the binding [1] was “binds”.

B2: IKKε, endogenous in THP-1 (protein, UniProt Q14164 1-716)
chain: MQSTANYLWHTDDLLGQGATASVYKARNKKSGELVAVKVFNTTSYLRPREVQVREFEVLRKLNHQNIVKLFAVEETGGSRQKVLVMEYCSSGSLLSVLESPENAFGLPEDEFLVVLRCVVAGMNHLRENGIVHRDIKPGNIMRLVGEEGQSIYKLTDFGAARELDDDEKFVSVYGTEEYLHPDMYERAVLRKPQQKAFGVTVDLWSIGVTLYHAATGSLPFIPFGGPRRNKEIMYRITTEKPAGAIAGAQRRENGPLEWSYTLPITCQLSLGLQSQLVPILANILEVEQAKCWGFDQFFAETSDILQRVVVHVFSLSQAVLHHIYIHAHNTIAIFQEAVHKQTSVAPRHQEYLFEGHLCVLEPSVSAQHIAHTTASSPLTLFSTAIPKGLAFRDPALDVPKFVPKVDLQADYNTAKGVLGAGYQALRLARALLDGQELMFRGLHWVMEVLQATCRRTLEVARTSLLYLSSSLGTERFSSVAGTPEIQELKAAAELRSRLRTLAEVLSRCSQNITETQESLSSLNRELVKSRDQVHEDRSIQQIQCCLDKMNFIYKQFKKSRMRPGLGYNEEQIHKLDKVNFSHLAKRLLQVFQEECVQKYQASLVTHGKRMRVVHETRNHLRLVGCSVAACNTEAQGVQESLSKLLEELSHQLLQDRAKGAQASPPPIAPYPSPTRKDLLLHMQELCEGMKLLASDLLDNNRIIERLNRVPAPPDV
B2 was tested, and the binding [2] was “binds”.

B3: hnRNPM, endogenous in HEK293FT (protein, UniProt P52272 1-730)
chain: MAAGVEAAAEVAATEIKMEEESGAPGVPSGNGAPGPKGEGERPAQNEKRKEKNIKRGGNRFEPYANPTKRYRAFITNIPFDVKWQSLKDLVKEKVGEVTYVELLMDAEGKSRGCAVVEFKMEESMKKAAEVLNKHSLSGRPLKVKEDPDGEHARRAMQKVMATTGGMGMGPGGPGMITIPPSILNNPNIPNEIIHALQAGRLGSTVFVANLDYKVGWKKLKEVFSMAGVVVRADILEDKDGKSRGIGTVTFEQSIEAVQAISMFNGQLLFDRPMHVKMDERALPKGDFFPPERPQQLPHGLGGIGMGLGPGGQPIDANHLNKGIGMGNIGPAGMGMEGIGFGINKMGGMEGPFGGGMENMGRFGSGMNMGRINEILSNALKRGEIIAKQGGGGGGGSVPGIERMGPGIDRLGGAGMERMGAGLGHGMDRVGSEIERMGLVMDRMGSVERMGSGIERMGPLGLDHMASSIERMGQTMERIGSGVERMGAGMGFGLERMAAPIDRVGQTIERMGSGVERMGPAIERMGLSMERMVPAGMGAGLERMGPVMDRMATGLERMGANNLERMGLERMGANSLERMGLERMGANSLERMGPAMGPALGAGIERMGLAMGGGGGASFDRAIEMERGNFGGSFAGSFGGAGGHAPGVARKACQIFVRNLPFDFTWKMLKDKFNECGHVLYADIKMENGKSKGCGVVKFESPEVAERACRMMNGMKLSGREIDVRIDRNA
B3 was tested, and the binding (ELAVL1-FLAG) was “binds”.

B4: TBK1, endogenous in HEK293FT (protein, UniProt Q9UHD2 1-729)
chain: MQSTSNHLWLLSDILGQGATANVFRGRHKKTGDLFAIKVFNNISFLRPVDVQMREFEVLKKLNHKNIVKLFAIEEETTTRHKVLIMEFCPCGSLYTVLEEPSNAYGLPESEFLIVLRDVVGGMNHLRENGIVHRDIKPGNIMRVIGEDGQSVYKLTDFGAARELEDDEQFVSLYGTEEYLHPDMYERAVLRKDHQKKYGATVDLWSIGVTFYHAATGSLPFRPFEGPRRNKEVMYKIITGKPSGAISGVQKAENGPIDWSGDMPVSCSLSRGLQVLLTPVLANILEADQEKCWGFDQFFAETSDILHRMVIHVFSLQQMTAHKIYIHSYNTATIFHELVYKQTKIISSNQELIYEGRRLVLEPGRLAQHFPKTTEENPIFVVSREPLNTIGLIYEKISLPKVHPRYDLDGDASMAKAITGVVCYACRIASTLLLYQELMRKGIRWLIELIKDDYNETVHKKTEVVITLDFCIRNIEKTVKVYEKLMKINLEAAELGEISDIHTKLLRLSSSQGTIETSLQDIDSRLSPGGSLADAWAHQEGTHPKDRNVEKLQVLLNCMTEIYYQFKKDKAERRLAYNEEQIHKFDKQKLYYHATKAMTHFTDECVKKYEAFLNKSEEWIRKMLHLRKQLLSLTNQCFDIEEEVSKYQEYTNELQETLPQKMFTASSGIKHTMTPIYPSSNTLVEMTLGMKKLKEEMEGVVKELAENNHILERFGSLTMDGGLRNVDCL
In the case of B4, the binding (ELAVL1-FLAG) is reported as “binds”.

B5: IKKβ (printed as IKKý; IKBKB), endogenous in THP-1 (protein, UniProt O14920 1-756)
chain: MSWSPSLTTQTCGAWEMKERLGTGGFGNVIRWHNQETGEQIAIKQCRQELSPRNRERWCLEIQIMRRLTHPNVVAARDVPEGMQNLAPNDLPLLAMEYCQGGDLRKYLNQFENCCGLREGAILTLLSDIASALRYLHENRIIHRDLKPENIVLQQGEQRLIHKIIDLGYAKELDQGSLCTSFVGTLQYLAPELLEQQKYTVTVDYWSFGTLAFECITGFRPFLPNWQPVQWHSKVRQKSEVDIVVSEDLNGTVKFSSSLPYPNNLNSVLAERLEKWLQLMLMWHPRQRGTDPTYGPNGCFKALDDILNLKLVHILNMVTGTIHTYPVTEDESLQSLKARIQQDTGIPEEDQELLQEAGLALIPDKPATQCISDGKLNEGHTLDMDLVFLFDNSKITYETQISPRPQPESVSCILQEPKRNLAFFQLRKVWGQVWHSIQTLKEDCNRLQQGQRAAMMNLLRNNSCLSKMKNSMASMSQQLKAKLDFFKTSIQIDLEKYSEQTEFGITSDKLLLAWREMEQAVELCGRENEVKLLVERMMALQTDIVDLQRSPMGRKQGGTLDDLEEQARELYRRLREKPRDQRTEGDSQEMVRLLLQAIQSFEKKVRVIYTQLSKTVVCKQKALELLPKVEEVVSLMNEDEKTVVRLQEKRQKELWNLLKIACSKVRGPVSGSPDSMNASRLSQPGQLMSQPSTASNSLPEPAKKSEELVAEAHNLCTLLENAIQDTVREQDQSFTALDWSWLQTEEEEHSCLEQAS
With B5 the binding [2] was “binds”.

B6: IRF3 phosphorylated at Ser396 (pIRF3-Ser396), endogenous in THP-1 (protein, UniProt Q14653 1-427)
chain: MGTPKPRILPWLVSQLDLGQLEGVAWVNKSRTRFRIPWKHGLRQDAQQEDFGIFQAWAEATGAYVPGRDKPDLPTWKRNFRSALNRKEGLRLAEDRSKDPHDPHKIYEFVNSGVGDFSQPDTSPDTNGGGSTSDTQEDILDELLGNMVLAPLPDPGPPSLAVAPEPCPQPLRSPSLDNPTPFPNLGPSENPLKRLLVPGEEWEFEVTAFYRGRQVFQQTISCPEGLRLVGSEVGDRTLPGWPVTLPDPGMSLTDRGVMSYVRHVLSCLGGGLALWRAGQWLWAQRLGHCHTYWAVSEELLPNSGHGPDGEVPKDKEGGVFDLGPFIVDLITFTEGSGRSPRYALWFCVGESWPQDQPWTKRLVMVKVVPTCLRALVEMARVGGASSLENTVDLHISNSHPLSLTSDQYKAYLQDLVEGMDFQGPGES
modifications: phosphoserine at 396
With B6 the binding [2] was “no binding”.

B7: Interferon regulatory factor 3 (IRF3), endogenous in THP-1 (protein, UniProt Q14653 1-427)
chain: MGTPKPRILPWLVSQLDLGQLEGVAWVNKSRTRFRIPWKHGLRQDAQQEDFGIFQAWAEATGAYVPGRDKPDLPTWKRNFRSALNRKEGLRLAEDRSKDPHDPHKIYEFVNSGVGDFSQPDTSPDTNGGGSTSDTQEDILDELLGNMVLAPLPDPGPPSLAVAPEPCPQPLRSPSLDNPTPFPNLGPSENPLKRLLVPGEEWEFEVTAFYRGRQVFQQTISCPEGLRLVGSEVGDRTLPGWPVTLPDPGMSLTDRGVMSYVRHVLSCLGGGLALWRAGQWLWAQRLGHCHTYWAVSEELLPNSGHGPDGEVPKDKEGGVFDLGPFIVDLITFTEGSGRSPRYALWFCVGESWPQDQPWTKRLVMVKVVPTCLRALVEMARVGGASSLENTVDLHISNSHPLSLTSDQYKAYLQDLVEGMDFQGPGES
With B7 the binding [2] was “no binding”.
